Values of other authors as cited in US20170056422A1, “PLASMODIUM LIVER-STAGE INHIBITORS AND RELATED METHODS” (Seattle Biomedical Research Institute, priority 2014, published 2017).
At least one compound was matched to its structure with a doubt left.

Test system: Influenza A and B
Conditions: similar doses to those used in this study; cited from earlier work

**Q.** With `COC1=CC(c2cc3ccccc3[nH]2)=N/C1=C\c1[nH]c(C)cc1C` [Obatoclax] as the compound, how does the “Influenza A and B viral infections” value read?
**A.** The value was “clear”.
